According to article PMC5095148:
These are yes or no findings as the source states them, for the method shown. Binding seen in cells or lysates may run through a third protein. Some entries that bind do so weakly or less than the wild type. For some of these results: Sequences can lack the tags named with a protein.

Chains of the proteins cited; added tags and fusions are not shown.
UniProt Q9H9Q2: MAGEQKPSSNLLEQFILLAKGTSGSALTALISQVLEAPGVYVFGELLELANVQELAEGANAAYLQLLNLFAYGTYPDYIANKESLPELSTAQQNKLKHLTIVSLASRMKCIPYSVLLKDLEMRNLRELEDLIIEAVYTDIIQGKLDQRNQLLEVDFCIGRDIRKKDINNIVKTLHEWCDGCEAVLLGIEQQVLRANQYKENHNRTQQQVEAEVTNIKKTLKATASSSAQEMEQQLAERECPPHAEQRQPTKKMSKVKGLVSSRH
UniProt Q99627: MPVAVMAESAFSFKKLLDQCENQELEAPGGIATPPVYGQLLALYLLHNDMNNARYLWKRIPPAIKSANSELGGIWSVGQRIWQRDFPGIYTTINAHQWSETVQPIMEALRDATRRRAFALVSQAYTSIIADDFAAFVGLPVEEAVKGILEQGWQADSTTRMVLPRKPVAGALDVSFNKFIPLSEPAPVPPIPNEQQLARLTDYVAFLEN

Columns and labels:
Flag‐CSN7B (human) = Flag‐CSN7B (human) (UniProt Q9H9Q2); assay: pull-down; Flag‐pulldown: lysates of Flag‐CSN7A‐LiSa‐2 or Flag‐CSN7B‐LiSa‐2 cells on an ANTI‐FLAG M2 affinity column, washed with 20 column volumes of 1× TBS (50 mM Tris‐HCl, pH 7.4, 150 mM NaCl, 1 mM EDTA), eluted with Flag peptide (100 μg/mL); western blotting of the eluate
Flag‐CSN7A (human) = Flag‐CSN7A (human) (UniProt Q9UBW8); assay: as above

| Substance | binding (Flag‐CSN7B (human)) | binding (Flag‐CSN7A (human)) |
| --- | --- | --- |
| CSN2 (from UniProt P61201 1-443) | binds |  |
| CSN5 (from UniProt Q92905 1-334) | binds |  |
| CSN6 (from UniProt Q7L5N1 1-327) | binds |  |
| CSN8 (from UniProt Q99627 1-209) | binds |  |

Other lines, results leading:

| binding (Flag‐CSN7B (human)) | binding (Flag‐CSN7A (human)) | Substance |
| --- | --- | --- |
| binds |  | CSN3 (from UniProt Q9UNS2 1-423) |
| binds |  | CSN4 (from UniProt Q9BT78 1-406) |
|  | no binding | CSN7B (COP9 signalosome subunit 7B), endogenous (from UniProt Q9H9Q2 1-264) |
